# Reference: PMC11442630
# The chains behind the UniProt entries cited, without tags or fusion partners.
# UniProt O94972: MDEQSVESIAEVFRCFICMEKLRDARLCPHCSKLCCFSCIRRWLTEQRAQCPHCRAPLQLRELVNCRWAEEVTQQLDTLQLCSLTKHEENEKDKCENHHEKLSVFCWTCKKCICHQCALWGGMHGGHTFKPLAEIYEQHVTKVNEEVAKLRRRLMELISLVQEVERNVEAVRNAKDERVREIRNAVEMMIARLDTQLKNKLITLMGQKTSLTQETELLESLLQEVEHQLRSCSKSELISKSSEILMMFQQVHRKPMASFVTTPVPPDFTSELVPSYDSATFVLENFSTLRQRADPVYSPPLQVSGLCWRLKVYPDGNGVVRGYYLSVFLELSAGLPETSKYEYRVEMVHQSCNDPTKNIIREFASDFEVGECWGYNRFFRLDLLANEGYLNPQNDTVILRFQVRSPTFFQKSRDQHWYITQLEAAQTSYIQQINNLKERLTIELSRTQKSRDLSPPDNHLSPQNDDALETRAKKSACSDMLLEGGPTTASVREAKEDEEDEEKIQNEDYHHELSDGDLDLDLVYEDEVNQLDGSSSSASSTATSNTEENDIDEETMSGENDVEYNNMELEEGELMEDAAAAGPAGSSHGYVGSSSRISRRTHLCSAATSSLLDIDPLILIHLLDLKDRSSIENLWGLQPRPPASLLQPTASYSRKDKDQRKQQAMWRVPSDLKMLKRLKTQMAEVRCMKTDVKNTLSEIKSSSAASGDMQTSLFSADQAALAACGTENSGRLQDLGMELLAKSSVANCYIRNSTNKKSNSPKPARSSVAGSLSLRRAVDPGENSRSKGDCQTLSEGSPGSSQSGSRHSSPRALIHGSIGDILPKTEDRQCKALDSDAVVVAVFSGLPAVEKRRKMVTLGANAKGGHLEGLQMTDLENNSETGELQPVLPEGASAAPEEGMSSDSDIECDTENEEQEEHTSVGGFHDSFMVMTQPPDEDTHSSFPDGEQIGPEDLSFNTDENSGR
# These are yes or no findings as the source states them, for the method shown. In cells and extracts the contact can be indirect. Some results given as binding are weak or reduced against the parent protein; the word gives no strength.
# T1: Kinesin family member C1 (KIFC1) (human (endogenous in HEC-1A and Ishikawa)) (UniProt Q9BW19)
# T1 sequence: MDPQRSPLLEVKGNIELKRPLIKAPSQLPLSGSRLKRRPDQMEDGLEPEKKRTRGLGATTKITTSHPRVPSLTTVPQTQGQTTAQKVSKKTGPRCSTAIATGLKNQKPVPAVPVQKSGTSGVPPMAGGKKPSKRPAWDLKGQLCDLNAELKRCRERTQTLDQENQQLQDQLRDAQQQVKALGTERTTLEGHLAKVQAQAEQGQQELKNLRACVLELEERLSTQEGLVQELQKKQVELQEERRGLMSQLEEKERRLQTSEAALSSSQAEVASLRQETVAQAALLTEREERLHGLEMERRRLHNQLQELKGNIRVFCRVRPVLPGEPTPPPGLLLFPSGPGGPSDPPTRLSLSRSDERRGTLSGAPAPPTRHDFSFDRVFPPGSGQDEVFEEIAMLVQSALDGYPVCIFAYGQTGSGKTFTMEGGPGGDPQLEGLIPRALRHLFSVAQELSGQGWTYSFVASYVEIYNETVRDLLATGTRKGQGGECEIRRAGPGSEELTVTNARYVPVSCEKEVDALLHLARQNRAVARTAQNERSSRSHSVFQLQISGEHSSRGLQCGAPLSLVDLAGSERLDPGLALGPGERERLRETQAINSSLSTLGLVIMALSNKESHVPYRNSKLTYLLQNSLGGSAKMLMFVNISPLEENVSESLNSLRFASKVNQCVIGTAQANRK
# T2: polo-like kinase 4 (PLK4) (human (endogenous in HEC-1A and Ishikawa)) (UniProt O00444)
# T2 sequence: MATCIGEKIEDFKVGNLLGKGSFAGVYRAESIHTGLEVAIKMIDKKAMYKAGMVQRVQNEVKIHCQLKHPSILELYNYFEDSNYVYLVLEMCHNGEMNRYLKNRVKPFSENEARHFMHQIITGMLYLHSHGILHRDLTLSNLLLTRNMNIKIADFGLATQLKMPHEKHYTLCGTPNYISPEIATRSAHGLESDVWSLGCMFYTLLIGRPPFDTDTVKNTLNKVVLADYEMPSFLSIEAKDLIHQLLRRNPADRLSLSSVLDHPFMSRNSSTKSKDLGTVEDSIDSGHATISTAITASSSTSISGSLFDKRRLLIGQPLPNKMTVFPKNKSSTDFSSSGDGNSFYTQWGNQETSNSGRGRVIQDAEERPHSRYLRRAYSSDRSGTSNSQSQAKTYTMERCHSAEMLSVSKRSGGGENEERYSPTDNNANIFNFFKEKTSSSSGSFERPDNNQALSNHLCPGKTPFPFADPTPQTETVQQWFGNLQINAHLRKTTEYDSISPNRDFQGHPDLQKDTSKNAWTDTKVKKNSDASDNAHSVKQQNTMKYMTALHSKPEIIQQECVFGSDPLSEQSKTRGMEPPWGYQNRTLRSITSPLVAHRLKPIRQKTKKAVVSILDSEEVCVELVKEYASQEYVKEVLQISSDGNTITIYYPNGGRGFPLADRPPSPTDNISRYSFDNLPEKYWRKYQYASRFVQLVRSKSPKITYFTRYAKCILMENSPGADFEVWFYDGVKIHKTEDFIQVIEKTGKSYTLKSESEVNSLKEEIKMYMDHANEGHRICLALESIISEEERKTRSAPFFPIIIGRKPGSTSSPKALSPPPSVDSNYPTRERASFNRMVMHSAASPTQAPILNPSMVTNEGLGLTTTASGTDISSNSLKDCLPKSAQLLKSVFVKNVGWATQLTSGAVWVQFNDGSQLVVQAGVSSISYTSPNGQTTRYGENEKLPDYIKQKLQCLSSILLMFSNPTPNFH
# B1: Kinesin family member C1 (KIFC1) (protein, UniProt Q9BW19 1-673)
# chain: T1 sequence
# Key:
# [1] = molecular target: T1, Kinesin family member C1 (KIFC1) (human (endogenous in HEC-1A and Ishikawa)); test: co-IP; HEC-1A and Ishikawa cells lysed in IP lysis buffer with protease inhibitors; immunoprecipitation with anti-PLK4, anti-KIFC1 or normal IgG antibody and protein G-Agarose beads overnight at 4 °C; western blot for KIFC1, TRIM37, PLK4 and GAPDH
# [2] = molecular target: T2, polo-like kinase 4 (PLK4) (human (endogenous in HEC-1A and Ishikawa)); test: as above
molecule,measurement,setting,value
E3 ubiquitin-protein ligase TRIM37 (from UniProt O94972 1-964),binding,[1],binds
same,binding,[2],binds
B1,binding,[2],no binding
